In PMC4120859 one finds binding data, which are given here for seven molecules.

The target in assay [1] is GST-tagged NdrC-RBD (amino acid residues 1-299 of NdrC) (Dictyostelium discoideum). As to the kind of experiment: pull-down; 100 μg GST-RBD and glutathione sepharose beads with 400 μg Dictyostelium protein lysate (wild-type AX2 or ndrC-null cells), 4°C, 1 hour; Western blot with polyclonal antibodies against RasB, RasG, RasC or Rap1; only the target purified.
Assay [2] has the same target. Kind of assay: pull-down; 400 μg purified His-tagged Ras protein with 100 μg GST-RBD on glutathione sepharose beads, binding buffer, 4°C overnight; Western blot with anti-His tag antibody; both purified. (In western blotting, separated proteins are transferred to a membrane and probed.)
Assay [3] has the same target. As to the kind of experiment: pull-down; GST-NdrC-RBD with wild-type AX2 cells expressing GFP-tagged Ras proteins; Western blot with anti-GFP antibodies; only the target purified.
Assay [4] shares this target. As to the kind of experiment: condition: 400 μg of His-tagged Ras protein with 100 μg of GST-RBD; pull-down; 400 μg purified His-tagged Ras protein with 100 μg GST-RBD on glutathione sepharose beads, binding buffer, 4°C overnight; Western blot with anti-His tag antibody; both purified.

Results are given in words; binding and its absence hold for the method and conditions named. For some of these results: Binding can be weak; no strength is given. For some of these results: Where a sequence is shown, tags or fusion partners need not be part of it. For some of these results: Binding seen in cells or lysates may run through a third protein.

B1: RasB, endogenous in Dictyostelium cell lysate (protein, UniProt P32252 1-197)
chain: MSVSNEYKLVVMGGGGVGKSALTIQFIQNHFIEEYDPTIEDSYRRQCQVDEDTCLLDILDTAGQDDYSAMRDQYMRTGQGFLCVYDVTSRTSFEEINVVREQIIRVKDNDKVPIVLVGNKCDLENLREVTEGEGSELAKSFSVPFLETSAKKRLNVDECFFEVVREIKKSLKEPGRSKKDKKGGILKKFKGGDCLIL
Take B1: the binding entry in assay [1] was “binds”.

B2: 6xHis-tagged constitutively activated RasB (G15T) (protein, UniProt P32252 1-197)
chain: MSVSNEYKLVVMGGTGVGKSALTIQFIQNHFIEEYDPTIEDSYRRQCQVDEDTCLLDILDTAGQDDYSAMRDQYMRTGQGFLCVYDVTSRTSFEEINVVREQIIRVKDNDKVPIVLVGNKCDLENLREVTEGEGSELAKSFSVPFLETSAKKRLNVDECFFEVVREIKKSLKEPGRSKKDKKGGILKKFKGGDCLIL
Consider B2, for which the binding result in assay [2] was “binds”.

B3: GFP-tagged RasB (protein, UniProt P32252 1-197)
chain: MSVSNEYKLVVMGGGGVGKSALTIQFIQNHFIEEYDPTIEDSYRRQCQVDEDTCLLDILDTAGQDDYSAMRDQYMRTGQGFLCVYDVTSRTSFEEINVVREQIIRVKDNDKVPIVLVGNKCDLENLREVTEGEGSELAKSFSVPFLETSAKKRLNVDECFFEVVREIKKSLKEPGRSKKDKKGGILKKFKGGDCLIL
Regarding B3, in assay [3], the binding entry is recorded as “binds”.

B4: 6xHis-tagged constitutively activated RasC (G13T) (protein, UniProt P32253 1-189)
chain: MSKLLKLVIVGDTGVGKSALTIQLTQNQFIAEYDPTIENSYRKQVNIDEEVYMLDILDTAGQEEYSAMRDQYIRSGRGFLIVYSIISRASFEAVTTFREQILRVKDLSTYPIVIIGNKADLPDKDRKVPPMEGKELAKSFGAPFLETSAKSRVNVEEAFFTLVREIKRWNQNPQNEEMLPPKKRGCIIL
In the case of B4, the binding entry in assay [2] is recorded as “binds”.

B5: RasC, endogenous in Dictyostelium cell lysate (protein, UniProt P32253 1-189)
chain: MSKLLKLVIVGDGGVGKSALTIQLTQNQFIAEYDPTIENSYRKQVNIDEEVYMLDILDTAGQEEYSAMRDQYIRSGRGFLIVYSIISRASFEAVTTFREQILRVKDLSTYPIVIIGNKADLPDKDRKVPPMEGKELAKSFGAPFLETSAKSRVNVEEAFFTLVREIKRWNQNPQNEEMLPPKKRGCIIL
Turning to B5, in assay [1], the binding result is “binds”.

B6: 6xHis-tagged wild-type RasS (protein, UniProt P32254 1-194)
chain: MFNFKLVLVGPGGVGKSCLTIQFIAQKFVDEYDPTLEDSYRKQTTVDGEECLLDIYDTAGQEDFSAVRDQYMRTGEGFLCVYSITYLQSFKEIHRLHNHLLKVKDLDSVPFVLVGNKCDLNEYREVSTAEGEELAKKLNCKFLETSAKERINVSESFYELVREVKKARQSNQHSNSQEQNTDQPIKKKKSCNLL
With B6, the binding result in assay [4] is “no binding”.

B7: 6xHis-tagged constitutively activated RasS (G12T) (protein, UniProt P32254 1-194)
chain: MFNFKLVLVGPTGVGKSCLTIQFIAQKFVDEYDPTLEDSYRKQTTVDGEECLLDIYDTAGQEDFSAVRDQYMRTGEGFLCVYSITYLQSFKEIHRLHNHLLKVKDLDSVPFVLVGNKCDLNEYREVSTAEGEELAKKLNCKFLETSAKERINVSESFYELVREVKKARQSNQHSNSQEQNTDQPIKKKKSCNLL
Take B7: the binding entry in assay [4] is “no binding”.
